Data: paper PMC8510601, “Discovery of benzamide-hydroxypyridinone hybrids as potent multi-targeting agents for the treatment of Alzheimer's disease” (Journal of Enzyme Inhibition and Medicinal Chemistry, 2021)

Test: in vitro
Settings: PAMPA

Compound `CC(C)NCC(O)COc1ccc(CC(N)=O)cc1` (stereo not shown) [Atenolol] has a Papp at 6 h, 25 μg/mL of 0.45 ± 0.25 ×10⁻⁶ cm/s.
